# Assay results from the supplement of paper PMC8728848.
# This is one part of the list.
# B1: Epa20 (Candida glabrata) (protein)
# chain: MGSSHHHHHHSSGLVPRGSHMASSNIPNNYPLGCSNKYSGHLPGLKMELYSYNYVNPRHPDPQNPGKLDQLYDPNLLGTYECFDSSYKDINYPRVGYKSKTLIGRSDGVSGILNFNFVPPWGCMPQKGQLPPAYNFKSNITLSNFTMILFGYFKPKISGNHIFSLHGDDLIYLNFGAGNAFDCCRQESSADNFGNYQAFSLWGINWEKKTLTVYLDMNTYYPIRIFYNNRDYQAIFNFSFKTEFDSSPVIDFQDYFFFLRDIDGGCPGEV
# Experiments:
# Assay in all cases: glycan array binding signal (z-score within array); higher = stronger binding
# Conditions in all cases: glycan notation: IUPAC condensed, linker removed
# [1] = target: Kdn(a2-3)Gal(b1-3)GlcNAc
# Method in brief: (§1)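 Arrays were curated from the Consortium for Functional Glycomics database, 3228 in total, and kept only where the protein sequence was available. Binding is expressed as a within-array Z-score. This score was averaged across arrays of the same protein sequence at different concentrations or buffers and across linkers, and negative values can be read as non-binding.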
# [2] = target: Kdn(a2-3)Gal(b1-4)Glc
# Method in brief: as §1
# [3] = target: Kdn(a2-3)Gal(b1-4)GlcNAc
# Method in brief: as §1
# [4] = target: Kdn(a2-3)Gal(b1-4)[Fuc(a1-3)]GlcNAc
# Method in brief: as §1
# [5] = target: Kdn(a2-6)Gal(b1-4)GlcNAc
# Method in brief: as §1
# [6] = target: Man(a1-2)Man(a1-2)Man(a1-3)Man
# Method in brief: as §1
# [7] = target: Man(a1-2)Man(a1-2)Man(a1-6)[Man(a1-3)]Man
# Method in brief: as §1
# [8] = target: Man(a1-2)Man(a1-3)Man
# Method in brief: as §1
# [9] = target: Man(a1-2)Man(a1-3)[Man(a1-2)Man(a1-6)]Man
# Method in brief: as §1
# [10] = target: Man(a1-2)Man(a1-3)[Man(a1-2)Man(a1-6)]Man(a1-6)[Man(a1-2)Man(a1-2)Man(a1-3)]Man
# Method in brief: as §1
# [11] = target: Man(a1-2)Man(a1-3)[Man(a1-2)Man(a1-6)]Man(a1-6)[Man(a1-2)Man(a1-2)Man(a1-3)]Man(b1-4)GlcNAc(b1-4)GlcNAc
# Method in brief: as §1
# [12] = target: Man(a1-2)Man(a1-3)[Man(a1-6)]Man(a1-6)[Man(a1-2)Man(a1-3)]Man(b1-4)GlcNAc(b1-4)GlcNAc
# Method in brief: as §1
# [13] = target: Man(a1-2)Man(a1-6)[Man(a1-3)]Man(a1-6)[Man(a1-2)Man(a1-2)Man(a1-3)]Man
# Method in brief: as §1
# [14] = target: Man(a1-2)Man(a1-6)[Man(a1-3)]Man(a1-6)[Man(a1-2)Man(a1-2)Man(a1-3)]Man(b1-4)GlcNAc(b1-4)GlcNAc
# Method in brief: as §1
# [15] = target: Man(a1-3)[Man(a1-6)]Man
# Method in brief: as §1
# [16] = target: Man(a1-3)[Man(a1-6)]Man(a1-6)[Man(a1-2)Man(a1-3)]Man(b1-4)GlcNAc(b1-4)GlcNAc
# Method in brief: as §1
# [17] = target: Man(a1-3)[Man(a1-6)]Man(a1-6)[Man(a1-3)]Man
# Method in brief: as §1
# [18] = target: Man(a1-3)[Man(a1-6)]Man(a1-6)[Man(a1-3)]Man(b1-4)GlcNAc(b1-4)GlcNAc
# Method in brief: as §1
# [19] = target: Man(a1-3)[Man(a1-6)]Man(b1-4)GlcNAc(b1-4)GlcNAc
# Method in brief: as §1
# [20] = target: Man(a1-3)[Man(a1-6)]Man(b1-4)GlcNAc(b1-4)[Fuc(a1-6)]GlcNAc
# Method in brief: as §1
# [21] = target: Man(a1-6)Man
# Method in brief: as §1
# [22] = target: Man(b1-4)GlcNAc
# Method in brief: as §1
# [23] = target: MurNAc(b1-4)GlcNAc
# Method in brief: as §1
# [24] = target: Neu5Ac(a2-3)Gal
# Method in brief: as §1
# [25] = target: Neu5Ac(a2-3)Gal(b1-3)GalNAc
# Method in brief: as §1
# [26] = target: Neu5Ac(a2-3)Gal(b1-3)GalNAc(b1-3)Gal(a1-4)Gal(b1-4)Glc
# Method in brief: as §1
# [27] = target: Neu5Ac(a2-3)Gal(b1-3)GalNAc(b1-4)Gal(b1-4)Glc
# Method in brief: as §1
# [28] = target: Neu5Ac(a2-3)Gal(b1-3)GalNAc(b1-4)[Neu5Ac(a2-3)]Gal(b1-4)Glc
# Method in brief: as §1
# [29] = target: Neu5Ac(a2-3)Gal(b1-3)GalNAc(b1-4)[Neu5Ac(a2-8)Neu5Ac(a2-3)]Gal(b1-4)Glc
# Method in brief: as §1
# [30] = target: Neu5Ac(a2-3)Gal(b1-3)GalNAc6S
# Method in brief: as §1
# [31] = target: Neu5Ac(a2-3)Gal(b1-3)GlcNAc
# Method in brief: as §1
# [32] = target: Neu5Ac(a2-3)Gal(b1-3)GlcNAc(b1-2)Man
# Method in brief: as §1
# [33] = target: Neu5Ac(a2-3)Gal(b1-3)GlcNAc(b1-2)Man(a1-3)[GlcNAc(b1-4)][Neu5Ac(a2-3)Gal(b1-3)GlcNAc(b1-2)Man(a1-6)]Man(b1-4)GlcNAc(b1-4)GlcNAc
# Method in brief: as §1
# [34] = target: Neu5Ac(a2-3)Gal(b1-3)GlcNAc(b1-2)Man(a1-3)[Neu5Ac(a2-3)Gal(b1-3)GlcNAc(b1-2)Man(a1-6)]Man(b1-4)GlcNAc(b1-4)GlcNAc
# Method in brief: as §1
# [35] = target: Neu5Ac(a2-3)Gal(b1-3)GlcNAc(b1-2)[Neu5Ac(a2-3)Gal(b1-3)GlcNAc(b1-4)]Man(a1-6)[Neu5Ac(a2-3)Gal(b1-3)GlcNAc(b1-2)Man(a1-3)]Man(b1-4)GlcNAc(b1-4)GlcNAc
# Method in brief: as §1
# [36] = target: Neu5Ac(a2-3)Gal(b1-3)GlcNAc(b1-3)Gal(b1-3)GlcNAc
# Method in brief: as §1
# [37] = target: Neu5Ac(a2-3)Gal(b1-3)GlcNAc(b1-3)Gal(b1-4)GlcNAc
# Method in brief: as §1
# [38] = target: Neu5Ac(a2-3)Gal(b1-3)GlcNAc(b1-3)GalNAc
# Method in brief: as §1
binder,measurement,setting,value
B1,glycan array binding signal (z-score),[1],-0.617
same,glycan array binding signal (z-score),[2],0.029
same,glycan array binding signal (z-score),[3],-0.422
same,glycan array binding signal (z-score),[4],0.229
same,glycan array binding signal (z-score),[5],0.172
same,glycan array binding signal (z-score),[6],-0.751
same,glycan array binding signal (z-score),[7],-0.437
same,glycan array binding signal (z-score),[8],-0.653
same,glycan array binding signal (z-score),[9],-0.826
same,glycan array binding signal (z-score),[10],-0.604
same,glycan array binding signal (z-score),[11],1.34
same,glycan array binding signal (z-score),[12],-0.728
same,glycan array binding signal (z-score),[13],-0.894
same,glycan array binding signal (z-score),[14],-0.37
same,glycan array binding signal (z-score),[15],0.009
same,glycan array binding signal (z-score),[16],0.066
same,glycan array binding signal (z-score),[17],-0.166
same,glycan array binding signal (z-score),[18],-0.394
same,glycan array binding signal (z-score),[19],-0.643
same,glycan array binding signal (z-score),[20],0.533
same,glycan array binding signal (z-score),[21],-0.123
same,glycan array binding signal (z-score),[22],0.958
same,glycan array binding signal (z-score),[23],-0.005
same,glycan array binding signal (z-score),[24],-0.831
same,glycan array binding signal (z-score),[25],-0.099
same,glycan array binding signal (z-score),[26],0.615
same,glycan array binding signal (z-score),[27],-0.428
same,glycan array binding signal (z-score),[28],0.124
same,glycan array binding signal (z-score),[29],-0.377
same,glycan array binding signal (z-score),[30],-0.466
same,glycan array binding signal (z-score),[31],-0.232
same,glycan array binding signal (z-score),[32],-0.545
same,glycan array binding signal (z-score),[33],-0.021
same,glycan array binding signal (z-score),[34],-0.678
same,glycan array binding signal (z-score),[35],-0.182
same,glycan array binding signal (z-score),[36],-0.76
same,glycan array binding signal (z-score),[37],-0.379
same,glycan array binding signal (z-score),[38],-0.266

# 2 successive records from above, for reference:
binder,measurement,setting,value
B1,glycan array binding signal (z-score),[32],-0.545
same,glycan array binding signal (z-score),[33],-0.021
